Laboratory results: patent US20180282418A1

Legend:
[1] = molecular target: HA-tagged CLEC14A with the sushi domain deleted; assay: far Western blot of HEK293T lysates with MMRN2 protein lysate, non-reduced
[2] = molecular target: HA-tagged CLEC14A with the C-type lectin domain (CTLD) deleted; assay: as above

- binding [1]: no binding
- binding [2]: no binding
B1: full-length human MMRN2 with a His tag overexpressed in HEK293T cells (ligand, not shown: small tags and cut ends)
chain: QASSTSLSDLQSSRTPGVWKAEAEDTGKDPVGRNWCPYPMSKLVTLLALCKTEKFLIHSQQPCPQGAPDCQKVKVMYRMAHKPVYQVKQKVLTSLAWRCCPGYTGPNCEHHDSMAIPEPADPGDSHQEPQDGPVSFKPGHLAAVINEVEVQQEQQEHLLGDLQNDVHRVADSLPGLWKALPGNLTAAVMEANQTGHEFPDRSLEQVLLPHVDTFLQVHFSPIWRSFNQSLHSLTQAIRNLSLDVEANRQAISRVQDSAVARADFQELGAKFEAKVQENTQRVGQLRQDVEDRLHAQHFTLHRSISELQADVDTKLKRLHKAQEAPGTNGSLVLATPGAGARPEPDSLQARLGQLQRNLSELHMTTARREEELQYTLEDMRATLTRHVDEIKELYSESDETFDQISKVERQVEELQVNHTALRELRVILMEKSLIMEENKEEVERQLLELNLTLQHLQGGHADLIKYVKDCNCQKLYLDLDVIREGQRDATRALEETQVSLDERRQLDGSSLQALQNAVDAVSLAVDAHKAEGERARAATSRLRSQVQALDDEVGALKAAAAEARHEVRQLHSAFAALLEDALRHEAVLAALFGEEVLEEMSEQTPGPLPLSYEQIRVALQDAASGLQEQALGWDELAARVTALEQASEPPRPAEHLEPSHDAGREEAATTALAGLARELQSLSNDVKNVGRCCEAEAGAGAASLNASLDGLHNALFATQRSLEQHQRLFHSLFGNFQGLMEANVSLDLGKLQTMLSRKGKKQQKDLEAPRKRDKKEAEPLVDIRVTGPVPGALGAALWEAGSPVAFYASFSEGTAALQTVKFNTTYINIGSSYFPEHGYFRAPERGVYLFAVSVEFGPGPGTGQLVFGGHHRTPVCTTGQGSGSTATVFAMAELQKGERVWFELTQGSITKRSLSGTAFGGFLMFKT

Results are given in words; binding and its absence hold for the method and conditions named. Sequences can lack the tags named with a protein.
